Changes are numbered by the printed parent chain. In names and notes the source's numbering stands. No constants are given. Whether binding was seen depends on the method and setting. For some of these results: Binding seen in cells or lysates may run through a third protein. Tags and fused reporters may be left off the sequences shown.
T1: Upf1-FL-TAP (S. cerevisiae) (S. cerevisiae) (UniProt P30771)
T1 sequence: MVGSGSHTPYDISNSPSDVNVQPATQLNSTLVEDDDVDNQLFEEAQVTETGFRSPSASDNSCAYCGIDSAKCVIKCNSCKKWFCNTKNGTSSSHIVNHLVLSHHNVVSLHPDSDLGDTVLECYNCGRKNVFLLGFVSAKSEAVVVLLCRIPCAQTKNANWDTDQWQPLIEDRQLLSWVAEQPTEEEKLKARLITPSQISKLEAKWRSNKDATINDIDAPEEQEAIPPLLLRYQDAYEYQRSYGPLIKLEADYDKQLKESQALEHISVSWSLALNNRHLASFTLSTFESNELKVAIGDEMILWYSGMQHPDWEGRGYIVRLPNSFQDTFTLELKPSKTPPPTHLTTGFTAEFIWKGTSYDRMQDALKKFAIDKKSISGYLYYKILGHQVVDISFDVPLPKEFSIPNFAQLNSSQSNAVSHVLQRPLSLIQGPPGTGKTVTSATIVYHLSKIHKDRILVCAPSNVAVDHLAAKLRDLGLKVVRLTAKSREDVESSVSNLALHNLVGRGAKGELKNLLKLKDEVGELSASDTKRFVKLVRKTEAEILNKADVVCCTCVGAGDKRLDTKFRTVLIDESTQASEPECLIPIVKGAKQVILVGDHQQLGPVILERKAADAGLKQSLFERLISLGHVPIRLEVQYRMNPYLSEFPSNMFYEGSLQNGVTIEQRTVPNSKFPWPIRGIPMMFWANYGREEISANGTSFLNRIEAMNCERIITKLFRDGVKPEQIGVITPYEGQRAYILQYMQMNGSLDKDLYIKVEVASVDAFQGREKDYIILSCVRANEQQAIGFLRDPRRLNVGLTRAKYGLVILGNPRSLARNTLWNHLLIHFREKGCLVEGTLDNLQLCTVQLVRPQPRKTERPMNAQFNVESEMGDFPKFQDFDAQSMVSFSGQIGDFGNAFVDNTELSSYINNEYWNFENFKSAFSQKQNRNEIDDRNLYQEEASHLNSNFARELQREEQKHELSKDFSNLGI

T2: CBP-His6-ZZ-Nmd4 (S. cerevisiae) (S. cerevisiae) (UniProt Q12129)
T2 sequence: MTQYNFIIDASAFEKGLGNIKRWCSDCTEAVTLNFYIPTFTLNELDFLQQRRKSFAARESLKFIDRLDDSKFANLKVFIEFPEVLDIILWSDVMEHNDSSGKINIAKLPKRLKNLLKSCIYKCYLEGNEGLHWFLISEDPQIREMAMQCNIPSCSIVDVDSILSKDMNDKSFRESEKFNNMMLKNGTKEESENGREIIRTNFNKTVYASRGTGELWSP

B1: Nmd4-PIN-HA (Nmd4-[1–168], genomic C-terminal 3HA tag) (domain or fragment, UniProt Q12129 1-168)
chain: MTQYNFIIDASAFEKGLGNIKRWCSDCTEAVTLNFYIPTFTLNELDFLQQRRKSFAARESLKFIDRLDDSKFANLKVFIEFPEVLDIILWSDVMEHNDSSGKINIAKLPKRLKNLLKSCIYKCYLEGNEGLHWFLISEDPQIREMAMQCNIPSCSIVDVDSILSKDMN
B2: untagged Upf1-HD G243R (domain or fragment, UniProt P30771 221-851)
chain: EQEAIPPLLLRYQDAYEYQRSYRPLIKLEADYDKQLKESQALEHISVSWSLALNNRHLASFTLSTFESNELKVAIGDEMILWYSGMQHPDWEGRGYIVRLPNSFQDTFTLELKPSKTPPPTHLTTGFTAEFIWKGTSYDRMQDALKKFAIDKKSISGYLYYKILGHQVVDISFDVPLPKEFSIPNFAQLNSSQSNAVSHVLQRPLSLIQGPPGTGKTVTSATIVYHLSKIHKDRILVCAPSNVAVDHLAAKLRDLGLKVVRLTAKSREDVESSVSNLALHNLVGRGAKGELKNLLKLKDEVGELSASDTKRFVKLVRKTEAEILNKADVVCCTCVGAGDKRLDTKFRTVLIDESTQASEPECLIPIVKGAKQVILVGDHQQLGPVILERKAADAGLKQSLFERLISLGHVPIRLEVQYRMNPYLSEFPSNMFYEGSLQNGVTIEQRTVPNSKFPWPIRGIPMMFWANYGREEISANGTSFLNRIEAMNCERIITKLFRDGVKPEQIGVITPYEGQRAYILQYMQMNGSLDKDLYIKVEVASVDAFQGREKDYIILSCVRANEQQAIGFLRDPRRLNVGLTRAKYGLVILGNPRSLARNTLWNHLLIHFREKGCLVEGTLDNLQLCTVQLVR
B3: untagged Upf1-HD G377R (domain or fragment, UniProt P30771 221-851)
chain: B2 chain with R23G, G157R
B4: untagged Upf1-HD double mutant G243R/G377R (domain or fragment, UniProt P30771 221-851)
chain: B2 chain with G157R

Key:
[1] = target: T1, Upf1-FL-TAP (S. cerevisiae) (S. cerevisiae); assay: co-IP; TAP-tagged Upf1 purified from S. cerevisiae lysate on IgG-magnetic beads, 1 h at 4°C; Nmd4-HA detected by anti-HA immunoblot
[2] = target: T2, CBP-His6-ZZ-Nmd4 (S. cerevisiae) (S. cerevisiae); assay: pull-down; CBP pull-down: 0.5 nmol CBP-His6-ZZ or CBP-His6-ZZ-Nmd4 with 0.5 nmol untagged Upf1-HD proteins, Calmodulin Sepharose 4B beads; 20 mM Hepes-NaOH pH 7.5, 125 mM NaCl, 2 mM CaCl2, 0.1% NP-40, 10% glycerol; Coomassie; both purified

Binder | binding [1] | binding [2]
B1 | no binding | 
B2 |  | no binding (tested: 0.5 nmol of each protein in 60 μL)
B3 |  | no binding (tested: 0.5 nmol of each protein in 60 μL)
B4 |  | no binding (tested: 0.5 nmol of each protein in 60 μL)
